# Results from one PubChem assay

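Luminescence from an EWS-FLI1 target-promoter (NR0B1) reporter, set against a CMV-promoter reporter, two days after silencing single genes in TC32 Ewing sarcoma cells.
Each siRNA was applied at 20 nM.
A z-score of the log NR0B1-over-CMV signal, less the median of siRNAs with the same seed; more negative means a stronger specific loss of the NR0B1 reporter.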

The strongest results of the screen are mostly left out here.
Sequences are the guide (antisense) strand, without overhang.

For UACCAGAUAAGUAAUCUCA against NIPSNAP3A the result was seed-corrected z-score 0.6219. UGUCCAAACAGAUAAUUCC against MIER1 gave seed-corrected z-score 0.2288. UUGCCGAAUAGUUUCAGUC against UBXN7 gave seed-corrected z-score 0.6453. For UAGGUAGAGAAAAGUAAGC against RPRD1A the result was seed-corrected z-score 0.4034. Result for UCGUAGAUAAAGUCAAAUC against MYO10 was seed-corrected z-score -1.484. With UUUUGUCCCAAUCACCUUC against MRPS17 the assay gave seed-corrected z-score 0.3887. AUAUGUAGCUCUAAAAGUG against LOC387939 read seed-corrected z-score 0.1367.

UAGUUGAUAGUAAUCCAGC against ENTPD1 read seed-corrected z-score -0.000667. With UUUCUGAAGGGAUUCGGCC against NSUN3 the assay gave seed-corrected z-score -0.554. Result for UCUAAGAUCACGGAUGGUG against CDK5RAP2 was seed-corrected z-score -0.7158. UAGUUUGCACCAAAUACGG against WBP2 gave seed-corrected z-score 0.5872. For UAGUUCACAAAUUCCCUUG against CINP the result was seed-corrected z-score -0.5044. GUGGGCAUGAGGAUGCACA against LCE4A gave seed-corrected z-score 0.4046. Result for UAGCGAUAUACAAGUAACC against TIE1 was seed-corrected z-score -0.03645.

AAACUUGUGGUAGCAGUGG against RET read seed-corrected z-score 0.03106. With UAUGAUCAUAUCUCUUUAC against RBM18 the assay gave seed-corrected z-score -1.235. With UCAUAGUGAACCAACAUGC against TPST1 the assay gave seed-corrected z-score 0.5062. Result for UGCUGAACAGGUGUUGUUG against KIF1A was seed-corrected z-score 0.1866. Result for UUCUUGUAGAUCGUUUCUG against MEPCE was seed-corrected z-score 0.29. With AUAGUGUAAAUUCUCCUCC against LGALS16 the assay gave seed-corrected z-score 0.346. UAAGCAUCUGGAUCAGCGG against HERC6 read seed-corrected z-score 0.3402.

With UUCUUCAUGAAACACCUGC against PRPH2 the assay gave seed-corrected z-score -0.4397. For UGGGUUCUUACAAUAUGCC against TAF1B the result was seed-corrected z-score 1.617. UUUCAGAGUGAAGCAUUCC against PLEKHG5 gave seed-corrected z-score -1.429. UUCUAAUACAUUUUCGGUC against USP45 gave seed-corrected z-score -0.1982. UUAAAGAGUAGUGAUAUUG against FEV read seed-corrected z-score 0.7369. Result for UGGGUUGCGAUCAUAAUGG against FATE1 was seed-corrected z-score 1.5. Result for UUUGAUGUACAUAUUCACC against UGT1A5 was seed-corrected z-score -0.6294.

UGAGGAUCAAAGCAUGCCG against CMKLR1 gave seed-corrected z-score -1.273. For UCGAGUCCCAGUGUCUUUC against SNRNP35 the result was seed-corrected z-score -1.045. With AAAGCAAGGAGAAACUAAG against PLAC8 the assay gave seed-corrected z-score 0.2226. Result for UUUAUAGCAUCCUCAAUUG against XDH was seed-corrected z-score 0.6111. For UUCUCGUUUUCAGCAUUGG against NWD2 the result was seed-corrected z-score -0.6489. With UAAACGCACAUAGCCGUUC against BMPR2 the assay gave seed-corrected z-score -0.141. UACUCGUAAACCCAAAUAG against FMN1 read seed-corrected z-score -0.2024.

Result for UUGAUGUUAAUGAUGUGCC against DHRS11 was seed-corrected z-score 0.03343. UCAUCUAGAACCACGUAUC against LAMA4 read seed-corrected z-score -0.4835. AAAAUUGCAGCUGACAUGC against GLT1D1 read seed-corrected z-score 0.1489. Result for AACCUGAGUACAUACAUGC against TBX4 was seed-corrected z-score 0.08039. Result for UAUUGCUUCGCCGUGGUCG against TLX2 was seed-corrected z-score -0.7625. UAAAAUGAAAUAAUCUUGG against THEMIS2 gave seed-corrected z-score 0.6932. For UUAUUGACUUCAGUGACGG against CACNA1F the result was seed-corrected z-score -0.3067.

With AAUUUAUCUAGAACAGUCU against FBXO27 the assay gave seed-corrected z-score 0.5273. For UUCCUGCCUCGUGUUCUCC against ZFYVE19 the result was seed-corrected z-score 0.2658. With UCUUUUCCCAUACCGCUGC against PYY the assay gave seed-corrected z-score -0.2605.

The first 5 entries again:

{"sirna": "UACCAGAUAAGUAAUCUCA", "gene": "NIPSNAP3A", "seed-corrected z-score": "0.6219"}
{"sirna": "UGUCCAAACAGAUAAUUCC", "gene": "MIER1", "seed-corrected z-score": "0.2288"}
{"sirna": "UUGCCGAAUAGUUUCAGUC", "gene": "UBXN7", "seed-corrected z-score": "0.6453"}
{"sirna": "UAGGUAGAGAAAAGUAAGC", "gene": "RPRD1A", "seed-corrected z-score": "0.4034"}
{"sirna": "UCGUAGAUAAAGUCAAAUC", "gene": "MYO10", "seed-corrected z-score": "-1.484"}

Data taken from PubChem BioAssay AID1159506, deposited by NCATS (2015).